Data as given in the supplement of paper PMC12823440, “Inhibitors supercharge kinase turnover through native proteolytic circuits” (Nature, 2025).
Some of the results follow. Hit calls seldom repeat between salt and free forms of one compound.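 In K562 cells expressing nanoluciferase-fused kinases, luminescence was recorded at 4 h intervals between 2 and 18 h, normalized as percent of control with DMSO at 100% and a positive control at 0%. A significant (2 sigma) signal drop marks a time point as decreased. The authors' rule for a hit is not shown and takes in more than the number of time points.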

Chains of the proteins cited; added tags and fusions are not shown. Lines headed by an entry give the natural chain unless they say otherwise; changes in a name come on top.
UniProt Q05397, whole entry, looked up: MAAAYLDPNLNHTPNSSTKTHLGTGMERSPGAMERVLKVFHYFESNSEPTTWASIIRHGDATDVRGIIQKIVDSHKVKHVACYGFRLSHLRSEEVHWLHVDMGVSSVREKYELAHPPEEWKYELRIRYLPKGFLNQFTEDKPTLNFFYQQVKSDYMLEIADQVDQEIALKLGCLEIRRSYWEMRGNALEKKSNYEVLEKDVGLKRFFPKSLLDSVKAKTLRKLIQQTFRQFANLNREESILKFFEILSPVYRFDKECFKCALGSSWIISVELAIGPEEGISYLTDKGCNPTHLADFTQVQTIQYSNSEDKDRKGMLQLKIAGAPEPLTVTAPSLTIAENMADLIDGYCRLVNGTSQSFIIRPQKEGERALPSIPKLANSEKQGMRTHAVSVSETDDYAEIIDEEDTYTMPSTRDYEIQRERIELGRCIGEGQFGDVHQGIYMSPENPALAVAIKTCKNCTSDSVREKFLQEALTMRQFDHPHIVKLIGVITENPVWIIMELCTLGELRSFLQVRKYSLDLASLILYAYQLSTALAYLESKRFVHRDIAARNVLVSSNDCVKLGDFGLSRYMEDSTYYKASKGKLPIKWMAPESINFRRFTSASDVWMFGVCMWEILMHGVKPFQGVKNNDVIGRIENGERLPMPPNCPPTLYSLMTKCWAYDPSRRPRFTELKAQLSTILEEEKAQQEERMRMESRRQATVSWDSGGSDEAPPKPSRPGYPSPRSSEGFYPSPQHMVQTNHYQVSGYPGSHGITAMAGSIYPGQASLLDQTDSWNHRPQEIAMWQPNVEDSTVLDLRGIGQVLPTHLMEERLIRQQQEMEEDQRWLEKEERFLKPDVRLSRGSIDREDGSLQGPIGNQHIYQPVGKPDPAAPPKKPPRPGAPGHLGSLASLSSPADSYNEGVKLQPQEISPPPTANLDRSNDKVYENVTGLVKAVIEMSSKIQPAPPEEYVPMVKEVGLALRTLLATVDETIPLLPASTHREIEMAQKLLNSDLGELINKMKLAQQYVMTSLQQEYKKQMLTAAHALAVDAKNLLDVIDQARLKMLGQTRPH
UniProt Q14289, whole entry, looked up: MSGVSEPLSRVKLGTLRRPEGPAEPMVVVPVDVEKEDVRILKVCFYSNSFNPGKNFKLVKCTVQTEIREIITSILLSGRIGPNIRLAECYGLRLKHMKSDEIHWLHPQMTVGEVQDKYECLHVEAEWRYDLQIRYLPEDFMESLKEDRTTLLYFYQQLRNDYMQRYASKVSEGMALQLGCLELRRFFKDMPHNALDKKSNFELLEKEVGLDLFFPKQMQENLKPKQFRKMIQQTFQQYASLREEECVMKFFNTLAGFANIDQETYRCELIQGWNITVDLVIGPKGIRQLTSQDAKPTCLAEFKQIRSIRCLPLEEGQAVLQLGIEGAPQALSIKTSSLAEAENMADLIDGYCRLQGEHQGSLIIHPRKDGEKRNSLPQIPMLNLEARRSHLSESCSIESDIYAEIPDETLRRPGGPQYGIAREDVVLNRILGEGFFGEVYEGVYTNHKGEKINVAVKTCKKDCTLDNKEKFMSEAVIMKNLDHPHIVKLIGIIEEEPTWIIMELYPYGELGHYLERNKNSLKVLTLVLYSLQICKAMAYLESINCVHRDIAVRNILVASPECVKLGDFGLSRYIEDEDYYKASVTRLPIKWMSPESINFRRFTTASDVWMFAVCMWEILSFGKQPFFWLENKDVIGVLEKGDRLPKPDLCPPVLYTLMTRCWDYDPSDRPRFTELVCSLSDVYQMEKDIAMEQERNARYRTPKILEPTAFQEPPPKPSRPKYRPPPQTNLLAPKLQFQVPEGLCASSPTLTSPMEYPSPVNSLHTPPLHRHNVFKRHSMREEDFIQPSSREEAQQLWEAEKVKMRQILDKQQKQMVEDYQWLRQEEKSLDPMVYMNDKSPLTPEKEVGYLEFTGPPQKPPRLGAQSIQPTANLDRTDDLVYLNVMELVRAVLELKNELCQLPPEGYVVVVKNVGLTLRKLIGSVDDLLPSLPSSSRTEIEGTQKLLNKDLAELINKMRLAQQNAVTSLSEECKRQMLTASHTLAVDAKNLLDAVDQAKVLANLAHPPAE
UniProt P07949, whole entry, looked up: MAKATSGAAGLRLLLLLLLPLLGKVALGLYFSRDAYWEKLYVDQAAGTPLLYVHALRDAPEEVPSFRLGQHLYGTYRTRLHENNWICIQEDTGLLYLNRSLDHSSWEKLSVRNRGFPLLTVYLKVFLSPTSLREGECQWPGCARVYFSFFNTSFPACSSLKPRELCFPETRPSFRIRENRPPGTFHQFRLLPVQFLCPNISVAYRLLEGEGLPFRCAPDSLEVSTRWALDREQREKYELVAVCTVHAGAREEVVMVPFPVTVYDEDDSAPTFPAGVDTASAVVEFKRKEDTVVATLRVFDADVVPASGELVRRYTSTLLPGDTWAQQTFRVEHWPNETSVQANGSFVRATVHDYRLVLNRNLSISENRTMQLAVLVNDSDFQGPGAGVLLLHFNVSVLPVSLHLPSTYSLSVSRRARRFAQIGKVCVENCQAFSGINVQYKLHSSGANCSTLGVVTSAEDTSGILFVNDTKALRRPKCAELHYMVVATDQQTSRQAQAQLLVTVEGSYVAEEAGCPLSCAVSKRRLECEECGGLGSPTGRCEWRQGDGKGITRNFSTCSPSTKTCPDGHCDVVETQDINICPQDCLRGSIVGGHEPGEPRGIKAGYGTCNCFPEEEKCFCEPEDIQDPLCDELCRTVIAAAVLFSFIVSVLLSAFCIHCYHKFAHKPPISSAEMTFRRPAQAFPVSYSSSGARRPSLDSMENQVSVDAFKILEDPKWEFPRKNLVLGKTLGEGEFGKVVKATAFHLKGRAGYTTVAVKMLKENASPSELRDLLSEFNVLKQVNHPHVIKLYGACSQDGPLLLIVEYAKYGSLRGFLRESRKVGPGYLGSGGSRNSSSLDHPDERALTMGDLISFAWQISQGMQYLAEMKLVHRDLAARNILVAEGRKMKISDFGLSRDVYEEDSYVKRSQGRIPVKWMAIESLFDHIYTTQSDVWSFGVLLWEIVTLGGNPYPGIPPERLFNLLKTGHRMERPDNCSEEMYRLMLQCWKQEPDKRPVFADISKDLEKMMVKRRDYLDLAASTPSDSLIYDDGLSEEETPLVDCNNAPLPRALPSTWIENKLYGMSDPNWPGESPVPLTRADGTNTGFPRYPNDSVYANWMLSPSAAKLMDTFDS
UniProt P07949, whole entry M918T, looked up: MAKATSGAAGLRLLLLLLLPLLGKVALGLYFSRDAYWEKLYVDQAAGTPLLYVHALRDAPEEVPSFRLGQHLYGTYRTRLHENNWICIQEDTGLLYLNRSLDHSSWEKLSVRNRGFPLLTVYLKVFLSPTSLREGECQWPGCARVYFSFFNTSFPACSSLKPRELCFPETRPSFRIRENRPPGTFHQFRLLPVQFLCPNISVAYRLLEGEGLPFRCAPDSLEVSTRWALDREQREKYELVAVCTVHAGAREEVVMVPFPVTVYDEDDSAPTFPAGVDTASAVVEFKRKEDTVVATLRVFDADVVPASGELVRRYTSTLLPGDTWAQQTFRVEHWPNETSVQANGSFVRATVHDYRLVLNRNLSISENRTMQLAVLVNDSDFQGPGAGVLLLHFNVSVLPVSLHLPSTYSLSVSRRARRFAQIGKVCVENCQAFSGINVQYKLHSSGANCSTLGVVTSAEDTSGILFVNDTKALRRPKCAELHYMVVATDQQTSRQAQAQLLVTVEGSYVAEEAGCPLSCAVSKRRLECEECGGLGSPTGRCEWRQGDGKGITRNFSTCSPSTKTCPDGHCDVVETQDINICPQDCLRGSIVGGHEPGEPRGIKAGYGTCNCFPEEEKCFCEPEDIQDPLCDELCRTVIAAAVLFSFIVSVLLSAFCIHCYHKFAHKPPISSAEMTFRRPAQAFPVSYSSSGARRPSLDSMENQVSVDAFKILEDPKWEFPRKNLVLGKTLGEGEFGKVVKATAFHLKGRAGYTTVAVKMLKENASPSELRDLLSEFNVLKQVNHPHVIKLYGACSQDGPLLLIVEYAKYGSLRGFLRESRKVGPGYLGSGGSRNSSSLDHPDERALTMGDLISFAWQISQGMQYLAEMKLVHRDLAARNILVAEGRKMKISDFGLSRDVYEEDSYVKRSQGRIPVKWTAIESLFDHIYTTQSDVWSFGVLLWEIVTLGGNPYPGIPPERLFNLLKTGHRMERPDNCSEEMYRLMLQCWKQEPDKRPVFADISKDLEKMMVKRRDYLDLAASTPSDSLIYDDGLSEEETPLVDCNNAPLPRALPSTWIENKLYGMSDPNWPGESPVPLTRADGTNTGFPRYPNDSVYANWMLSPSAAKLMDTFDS
UniProt Q9BRS2: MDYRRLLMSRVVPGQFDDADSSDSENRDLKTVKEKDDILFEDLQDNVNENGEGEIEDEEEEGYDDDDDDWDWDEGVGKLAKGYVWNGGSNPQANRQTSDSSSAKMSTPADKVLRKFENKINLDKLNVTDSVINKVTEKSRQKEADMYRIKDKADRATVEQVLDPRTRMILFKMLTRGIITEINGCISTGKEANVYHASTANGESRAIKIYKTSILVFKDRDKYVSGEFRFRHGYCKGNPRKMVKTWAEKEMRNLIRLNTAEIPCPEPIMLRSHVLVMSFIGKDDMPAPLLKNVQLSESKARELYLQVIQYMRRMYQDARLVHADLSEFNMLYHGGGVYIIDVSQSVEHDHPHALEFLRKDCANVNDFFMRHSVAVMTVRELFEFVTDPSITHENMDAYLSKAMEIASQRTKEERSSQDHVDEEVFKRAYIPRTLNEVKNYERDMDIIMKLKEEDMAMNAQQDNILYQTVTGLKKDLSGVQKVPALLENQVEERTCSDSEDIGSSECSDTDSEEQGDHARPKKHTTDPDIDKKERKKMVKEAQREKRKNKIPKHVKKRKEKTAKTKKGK
UniProt Q13546: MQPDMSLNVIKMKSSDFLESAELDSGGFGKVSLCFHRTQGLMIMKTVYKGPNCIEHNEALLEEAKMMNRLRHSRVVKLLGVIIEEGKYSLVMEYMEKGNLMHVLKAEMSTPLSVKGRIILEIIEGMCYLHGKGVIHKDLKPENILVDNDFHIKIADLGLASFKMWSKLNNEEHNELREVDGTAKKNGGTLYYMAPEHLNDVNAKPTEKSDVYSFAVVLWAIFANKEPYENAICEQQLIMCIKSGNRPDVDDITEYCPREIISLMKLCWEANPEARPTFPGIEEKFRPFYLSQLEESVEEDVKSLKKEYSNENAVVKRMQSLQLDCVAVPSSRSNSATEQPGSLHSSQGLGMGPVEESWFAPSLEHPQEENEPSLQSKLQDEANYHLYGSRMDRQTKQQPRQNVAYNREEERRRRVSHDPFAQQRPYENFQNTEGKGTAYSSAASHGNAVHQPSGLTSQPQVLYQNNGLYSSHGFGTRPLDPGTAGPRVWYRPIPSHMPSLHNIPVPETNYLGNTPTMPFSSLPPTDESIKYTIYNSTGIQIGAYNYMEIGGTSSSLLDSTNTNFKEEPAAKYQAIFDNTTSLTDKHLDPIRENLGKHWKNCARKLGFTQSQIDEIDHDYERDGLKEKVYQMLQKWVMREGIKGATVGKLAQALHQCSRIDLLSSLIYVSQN

How the values were obtained:
Test in all cases: number of time points (of 5) at which kinase-Nluc abundance scored as decreased, DMSO-normalised (count); higher = more persistent destabilization
Details in all cases: K562; 2-18 h
PRKCA = PRKCA (UniProt P17252)
PTK2 = PTK2 (UniProt Q05397)
PTK2B = PTK2B (UniProt Q14289)
RAF1 = RAF1 (UniProt P04049)
[1] = target: RAF1_S257L (clone: RAF1_mut) (UniProt P04049)
RET = RET (UniProt P07949)
[2] = target: RET_M918T (clone: RET_mut) (UniProt P07949)
RIOK1 = RIOK1 (UniProt Q9BRS2)
RIPK1 = RIPK1 (UniProt Q13546)
RIPK2 = RIPK2 (UniProt O43353)

SMILES | number of time points (PRKCA) | number of time points (PTK2) | number of time points (PTK2B) | number of time points (RAF1) | number of time points [1] | number of time points (RET) | number of time points [2] | number of time points (RIOK1) | number of time points (RIPK1) | number of time points (RIPK2)
CC(C)(C)S(=O)(=O)c1cc2c(Nc3ccc4scnc4c3)ccnc2cc1OCCOCCOCCOCCOCC(=O)Nc1cccc2c1CN(C1CCC(=O)NC1=O)C2=O (stereo not given) [PROTAC RIPK degrader-6] (10 µM) | 0 | 0 | 0 | 0 | 0 | 0 | 0 | 0 | 0 | 4
O=C1NC(=O)C(c2ccccc2[N+](=O)[O-])=C1Nc1ccc(O)c(Cl)c1 (10 µM) | 0 | 0 | 0 | 0 | 0 | 0 | 0 | 0 | 0 | 0
O=c1cc(-c2ccc(O)cc2)oc2cc(O)c(O)c(O)c12 [Scutellarein] (10 µM) | 0 | 0 | 0 | 0 | 0 | 0 | 0 | 0 | 0 | 0
O=c1sn(-c2cccc3ccccc23)c(=O)n1Cc1ccccc1 [Tideglusib] (10 µM) | 0 | 0 | 0 | 0 | 0 | 0 | 0 | 0 | 0 | 0
N#Cc1cn([C@@H]2O[C@H](CO)[C@@H](O)[C@H]2O)c2nc[nH]c(=O)c12 [Jaspamycin] (10 µM) | 0 | 0 | 0 | 0 | 0 | 0 | 0 | 0 | 0 | 0
Cn1cc(-c2ccc3ncc(Cc4ccc5ncccc5c4)n3n2)cn1 (10 µM) | 0 | 0 | 0 | 0 | 0 | 0 | 0 | 0 | 0 | 0
Cn1sc(=O)n(Cc2ccccc2)c1=O (10 µM) | 0 | 0 | 0 | 0 | 0 | 0 | 0 | 0 | 0 | 0
C[C@@H](N)COc1ccc(-c2cnc3ccc(N[C@H](C)c4cccc(F)c4)nn23)cc1 [Taletrectinib] (2.5 µM) | 0 | 0 | 0 | 0 | 0 | 0 | 0 | 0 | 0 | 0
O=C(O)[C@]1(Cc2cccc(Nc3nccs3)n2)CC[C@@H](Oc2cccc(Cl)c2F)CC1 (2.5 µM) | 0 | 0 | 0 | 2 | 3 | 1 | 1 | 2 | 0 | 1
COc1cc(-c2cnc(N)c(-c3ccc(NC(=O)c4cn(CC5CCOCC5)cc(-c5ccc(C)cn5)c4=O)cc3F)c2)ccc1OC[C@H]1COCCO1 [DS-1205b (free base)] (10 µM) | 0 | 0 | 0 | 0 | 0 | 0 | 0 | 0 | 0 | 0
COc1cccc2cc(-c3nc([C@H]4CC[C@H](C(=O)O)CC4)n4ncnc(N)c34)[nH]c12 (2.5 µM) | 0 | 2 | 1 | 2 | 2 | 0 | 4 | 2 | 3 | 3
NC(=O)c1cccc2c(N[C@H](CN3CCC3)c3ccc(Cl)c(C(F)(F)F)c3)ncnc12 (10 µM) | 0 | 0 | 0 | 0 | 0 | 0 | 0 | 0 | 0 | 0
O=C(N=c1sccn1Cc1ccccc1)c1c[nH]c2ncccc12 (10 µM) | 0 | 0 | 0 | 0 | 0 | 0 | 0 | 0 | 0 | 0
CC(C)=CCC/C(C)=C/CC/C(C)=C/CSc1ccccc1C(=O)O [Salirasib] (10 µM) | 0 | 0 | 0 | 0 | 0 | 0 | 0 | 0 | 0 | 0
N#Cc1c[nH]c2ccc(-c3ccc(-c4c(O)cccc4O)cc3)cc12 (10 µM) | 0 | 0 | 0 | 0 | 0 | 0 | 0 | 0 | 0 | 0
CNS(=O)(=O)Nc1nccc(Cc2c(C)c3ccc(Oc4ncccn4)cc3oc2=O)c1F (10 µM) | 0 | 1 | 0 | 1 | 0 | 1 | 0 | 1 | 1 | 1
O=C1NCCSc2c1sc1ccc(O)cc21 (2.5 µM) | 0 | 0 | 0 | 0 | 1 | 0 | 0 | 0 | 2 | 1

Whole records as entered above. Values in the order: number of time points (PRKCA)	number of time points (PTK2)	number of time points (PTK2B)	number of time points (RAF1)	number of time points [1]	number of time points (RET)	number of time points [2]	number of time points (RIOK1)	number of time points (RIPK1)	number of time points (RIPK2)
N#Cc1cn([C@@H]2O[C@H](CO)[C@@H](O)[C@H]2O)c2nc[nH]c(=O)c12 [Jaspamycin] (10 µM) reads 0	0	0	0	0	0	0	0	0	0
COc1cc(-c2cnc(N)c(-c3ccc(NC(=O)c4cn(CC5CCOCC5)cc(-c5ccc(C)cn5)c4=O)cc3F)c2)ccc1OC[C@H]1COCCO1 [DS-1205b (free base)] (10 µM) reads 0	0	0	0	0	0	0	0	0	0
